Among the data in PMC7819943, “Rice protein-binding microarrays: a tool to detect cis-acting elements near promoter regions in rice” are binding signal values, retold here.

Chains of the proteins cited; added tags and fusions are not shown.
UniProt Q0JBA9, entry or part of it: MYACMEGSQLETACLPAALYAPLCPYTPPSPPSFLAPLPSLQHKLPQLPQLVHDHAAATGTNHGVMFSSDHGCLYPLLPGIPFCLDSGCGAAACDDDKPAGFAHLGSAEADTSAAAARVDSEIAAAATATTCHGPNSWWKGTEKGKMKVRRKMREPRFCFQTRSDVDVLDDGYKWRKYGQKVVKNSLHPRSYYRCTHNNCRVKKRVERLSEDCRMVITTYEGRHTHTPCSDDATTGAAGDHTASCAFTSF

This is one part of the list.

The experiment concerns the target OsWRKY34 (Oryza sativa, UniProt Q0JBA9 1-250). As to the kind of experiment: protein-binding microarray (RPBM); PBS, 2% BSA, 51.3 ng/ul salmon testes DNA, 50 uM zinc acetate, 200 nM TF, 25 C, 1 h; high values mean tight binding. The settings on record: protein: recombinant; tags: N-terminal polyhistidine and DsRed monomer fusion (pET32a); label: CyDye5-dUTP incorporated in the synthesized complementary strand; 3' TTTTT single-stranded linker to array surface; dsDNA, one strand shown. An outline of the steps:
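Transcription factors were made in E. coli BL21-CodonPlus as N-terminal fusions to a polyhistidine tag and DsRed, then purified on Ni–NTA. After primer extension with Cy5-dUTP and blocking with 2% BSA, a custom Agilent array was exposed for 1 h at 25 °C to 200 nM protein in PBS, 2% BSA, salmon testes DNA and 50 µM zinc acetate. Washed arrays were scanned on an Axon 4000B, and the binding signal is per-feature fluorescence intensity in arbitrary units.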
As to “GCCTTTTCTAAATTATTTTTCACTTTTCTGATTTTTTAAACGGAGTCACCTAGTGCAG”, the binding signal is 8790 fluorescence intensity (a.u.).

Take “CCATAGTAGTATAGCTTGATTATTGTGTTTACTGGCTACACGGAGTCACCTAGTGCAG”: the binding signal was 8192 fluorescence intensity (a.u.).

“ACCACCACCTTTTTCCAGCTAGCACTGCAATTAAACAATCCGGAGTCACCTAGTGCAG”: the binding signal was 9120 fluorescence intensity (a.u.).

With “TGTATCGTCATCTGCTGTATCTACAGTCTTCAATTAAGTTCGGAGTCACCTAGTGCAG”, the binding signal is 8720 fluorescence intensity (a.u.).

For “GAGTTTACACTTATGCCCCTGGGTTTATTTTATTTTTATTCGGAGTCACCTAGTGCAG”, the binding signal was 9250 fluorescence intensity (a.u.).

“TTTGTCAGCACCATTAAACTGTTGGCGTTTAGTGTTCACTCGGAGTCACCTAGTGCAG”: the binding signal was 8310 fluorescence intensity (a.u.).

As to “AGAGTGGGGCTTGGTGTCGGGTTTTTAGGATTAAGTTTTGCGGAGTCACCTAGTGCAG”, the binding signal is 14500 fluorescence intensity (a.u.).

For “TCCTAGGCGATCTCACATTTTTTGTTGCGTTTCTCCGCCCCGGAGTCACCTAGTGCAG”, the binding signal is 8850 fluorescence intensity (a.u.).

As to “ATCTCTCTTTGCGGTCTTTACTACCCACTACGCCTAACCCCGGAGTCACCTAGTGCAG”, the binding signal was 9100 fluorescence intensity (a.u.).

For “TGTGTGGGCTTAATAATTGTGGGGTAGATTTGCATTTGCACGGAGTCACCTAGTGCAG”, the binding signal is 15900 fluorescence intensity (a.u.).

Consider “CCCTCCGAATCGATCGCCGGCCGGCCGCCCGCCCGCCACCCGGAGTCACCTAGTGCAG”, for which the binding signal is 8550 fluorescence intensity (a.u.).

For the sequence “AAAAAACAATTTTCGTTTGCAGCGGTCGACATTTTTCTTCCGGAGTCACCTAGTGCAG”, the binding signal was 9580 fluorescence intensity (a.u.).

In the case of “ACTCCTTACGTATTCGGCTGAGTTCTTTTACCAACTTTTCCGGAGTCACCTAGTGCAG”, the binding signal was 9780 fluorescence intensity (a.u.).

As for “CGCATGCCGTGTGCCTGAGCTTTTCTCGTGCTATCACAGTCGGAGTCACCTAGTGCAG”, the binding signal was 9280 fluorescence intensity (a.u.).

Regarding “TGTCTGTCCATGTCCAAGGAGACTGATTTATCTTTTTTCTCGGAGTCACCTAGTGCAG”, the binding signal is 8380 fluorescence intensity (a.u.).

Turning to “TTTTTTTATTATTTTTCCGGGATTCATTTGCCACGTCAATCGGAGTCACCTAGTGCAG”, the binding signal was 8040 fluorescence intensity (a.u.).

On to “AAGTATCTCTTACTCCGTCTTTGCTTGGCTCATCGATTGCCGGAGTCACCTAGTGCAG”, for which the binding signal is 9900 fluorescence intensity (a.u.).

For the sequence “CCCTTTCATATCAGGAGGCTGGCGTAGTGGACGGGCGGGGCGGAGTCACCTAGTGCAG”, the binding signal was 11400 fluorescence intensity (a.u.).

On to “AGCTATTCCGTTCGTTATCCCAGTTAGCTAGCTAGAATCTCGGAGTCACCTAGTGCAG”, for which the binding signal was 10500 fluorescence intensity (a.u.).

Turning to “TTTCTTCCACTTCTCTCGCAGGCTGTTGAATAATCTTTTCCGGAGTCACCTAGTGCAG”, the binding signal was 11700 fluorescence intensity (a.u.).

“TTTAAGCTTTCCATCTTGAAAAAAAAATGGCGTTGACCGGCGGAGTCACCTAGTGCAG”: the binding signal was 11100 fluorescence intensity (a.u.).

For “GGTAGAGAAGACGAGGAGTAGGAGGGGTGGTTGGTGCCGACGGAGTCACCTAGTGCAG”, the binding signal is 9970 fluorescence intensity (a.u.).

On to “CTTCTTGCTTTCATCGTTGGTTCTTTTGAGATCACTTTCACGGAGTCACCTAGTGCAG”, for which the binding signal is 12100 fluorescence intensity (a.u.).

Turning to “TCTACTCGCGGCCTTCCGTTCCAATATGCTATCTGCCTCTCGGAGTCACCTAGTGCAG”, the binding signal was 9600 fluorescence intensity (a.u.).

On to “CGACGCGTCCCTCCTCCTTCTCGCTGTCCCCGACCATTTCCGGAGTCACCTAGTGCAG”, for which the binding signal is 11700 fluorescence intensity (a.u.).

In the case of “TTTTGCTGACTAGGATGCCACGTCGAAACCACCCATACATCGGAGTCACCTAGTGCAG”, the binding signal is 8660 fluorescence intensity (a.u.).

“TTGATGGTTGTGCTATGTTTTGTCCAACATTTTATCTTTCCGGAGTCACCTAGTGCAG”: the binding signal is 9360 fluorescence intensity (a.u.).

In the case of “GACCTCCTCGCCTCATCCACTCTTTGCCTGCCTCCGCGACCGGAGTCACCTAGTGCAG”, the binding signal was 10500 fluorescence intensity (a.u.).

For “TATACATCATCCCCAATTTTCTCTTCATTCATAATTCATCCGGAGTCACCTAGTGCAG”, the binding signal was 8070 fluorescence intensity (a.u.).

As for “CCCGCCACGTGCCGTCCTGCCCGTCCGACGTGGCGCCGCGCGGAGTCACCTAGTGCAG”, the binding signal is 9320 fluorescence intensity (a.u.).

Turning to “AAATTTCACCACACTTTCCAATCTCGTTTAGTTTGGACTACGGAGTCACCTAGTGCAG”, the binding signal was 8870 fluorescence intensity (a.u.).

For “GTGGGGTGGTGGTTGATCTCCTCCTCGTCGTCGGATGACACGGAGTCACCTAGTGCAG”, the binding signal was 12400 fluorescence intensity (a.u.).

With “CAACAATACTGACACTGGAATTATCCAATGCATTCCTAAACGGAGTCACCTAGTGCAG”, the binding signal was 8270 fluorescence intensity (a.u.).

On to “GACGTTCTCATTGTTATTCCCCTACGTTTGTAATCATCTACGGAGTCACCTAGTGCAG”, for which the binding signal was 9460 fluorescence intensity (a.u.).

For the sequence “TTAGGACCTTATTTGCACTAGTTTTGAGTTTTGATAGTTGCGGAGTCACCTAGTGCAG”, the binding signal is 8600 fluorescence intensity (a.u.).

Regarding “ATCTTCACACTCATAATCTCACCCTTAGTTTATCTGATACCGGAGTCACCTAGTGCAG”, the binding signal was 9560 fluorescence intensity (a.u.).

As for “CTTCACTCGGTCCAGCCACCGCTCGCGCTACGCGCGCGTCCGGAGTCACCTAGTGCAG”, the binding signal is 8520 fluorescence intensity (a.u.).

Turning to “GCTCTTCAGTCTTTGAGGTGAAATCAATTTTCGTAGCAGTCGGAGTCACCTAGTGCAG”, the binding signal was 8460 fluorescence intensity (a.u.).

With “ATTCTATACTCCAGCTTTAAAATTTAACTTTCTCGTTTACCGGAGTCACCTAGTGCAG”, the binding signal was 8430 fluorescence intensity (a.u.).

Take “CTAGCTGATCGGGGTTCTGACTCTACCCATCACGATTTAACGGAGTCACCTAGTGCAG”: the binding signal is 11800 fluorescence intensity (a.u.).

Take “CTCTCTATCTCTCACCAGTCGGTGGTAGCAACCAGCATCACGGAGTCACCTAGTGCAG”: the binding signal is 10900 fluorescence intensity (a.u.).

For the sequence “CCCACCACCACTCGCATCACCATCCATCCATCCATCTCCACGGAGTCACCTAGTGCAG”, the binding signal was 9400 fluorescence intensity (a.u.).

Take “GCTTGTTTCTTACCATACGGGTCCACACAAGCAACACATACGGAGTCACCTAGTGCAG”: the binding signal is 8680 fluorescence intensity (a.u.).

Regarding “ACACAGCTATCTTGCTCTTCTAGCAGTTTCAGGCAGCTCTCGGAGTCACCTAGTGCAG”, the binding signal is 10300 fluorescence intensity (a.u.).

As to “TTTCTCATTTGCGCTCCATTTTATAGATCTAAGTATTAACCGGAGTCACCTAGTGCAG”, the binding signal is 10700 fluorescence intensity (a.u.).

For the sequence “AACAGCATAACCAGACATATTTTTTGGCTTTTCCTTTTCTCGGAGTCACCTAGTGCAG”, the binding signal was 9010 fluorescence intensity (a.u.).

On to “GGTCAAACGTTGGACACGGAAACCCATGGTTTATCTTTTTCGGAGTCACCTAGTGCAG”, for which the binding signal was 9050 fluorescence intensity (a.u.).

On to “GAGCAGTCACATCCTCCGCCACCGCCGCCTGCGCCGATCCCGGAGTCACCTAGTGCAG”, for which the binding signal was 8340 fluorescence intensity (a.u.).

Turning to “GACAGCCAATCCATCGTCTTCCTCGCGAGCATGGCCATGACGGAGTCACCTAGTGCAG”, the binding signal was 8530 fluorescence intensity (a.u.).

As for “TCTTCACCGCCGCCGTGCTCCACCGTATCCTTCGGCGACCCGGAGTCACCTAGTGCAG”, the binding signal is 10100 fluorescence intensity (a.u.).

With “CTGTGTTGCAGTCATTTTCTCTCCCATAGCTGTCCTTATACGGAGTCACCTAGTGCAG”, the binding signal was 11400 fluorescence intensity (a.u.).

As for “ACCGTTCGTCTTATTCAAAAATTTTAAGTAATTATTAATTCGGAGTCACCTAGTGCAG”, the binding signal is 8260 fluorescence intensity (a.u.).

Regarding “GGCTGGCGGGCGGCGGGCGGGCGAGGACAAGCACCTCTCCCGGAGTCACCTAGTGCAG”, the binding signal was 13000 fluorescence intensity (a.u.).

As to “CACACATAACTCATCGCCTCATCATCGTCATCTATCTCCGCGGAGTCACCTAGTGCAG”, the binding signal was 8360 fluorescence intensity (a.u.).
